Measured values from patent US20110171261A1, “IMMUNOGENIC COMPOSITION” (priority 2008, published 2011).
Some of these results come from one statement about several compounds together. Some compounds share one range, which may span the group rather than tell each member.

Biological target: T1, CCR4 (Homo sapiens, UniProt P51679)
T1 construct: These CD4+CD25^high cells expressed FoxP3 and CCR4; endogenous in cells; host or cells: human CD4+CD25+ Tregs isolated from PBMC of healthy donors
T1 sequence (P51679 1-360): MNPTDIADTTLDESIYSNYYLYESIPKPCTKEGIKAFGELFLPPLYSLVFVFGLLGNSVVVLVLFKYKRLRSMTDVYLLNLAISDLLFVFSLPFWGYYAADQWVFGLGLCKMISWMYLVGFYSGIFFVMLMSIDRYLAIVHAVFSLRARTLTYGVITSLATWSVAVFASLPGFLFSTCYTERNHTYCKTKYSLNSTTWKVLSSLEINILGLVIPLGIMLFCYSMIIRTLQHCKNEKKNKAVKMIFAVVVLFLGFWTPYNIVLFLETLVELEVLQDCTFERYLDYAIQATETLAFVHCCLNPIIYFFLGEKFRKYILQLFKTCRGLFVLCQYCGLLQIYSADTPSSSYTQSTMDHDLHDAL
Test: CCL22- and CCL17-mediated chemotaxis of human CD4+CD25+ regulatory T cells
Type: cell-based
Conditions: 10 nM antagonist, range over the six compounds

**Q.** How did the “inhibition of Treg migration in response to CCL17” value (1.2 nM CCL17, six donors) turn out when `O=C(C1=C(O)C(=O)N(c2nnc(SCc3ccc(Cl)cc3)s2)C1c1cccs1)c1cc2ccccc2o1` (centres unmarked) [(V)] was run?
**A.** 35.9-46.4%

**Q.** What about the “inhibition of CCL22-mediated Treg migration” value (1.2 nM CCL22, n=6 donors) of the same compound?
**A.** 29.6-40.1%
